# Data published in the supplement of paper PMC8728848.
# The list shows a part of the results.
# B1: Flo10 (Saccharomyces cerevisiae), P36170 (protein)
# chain: MPVAARYIFLTGLFLLSVANVALGTTEACLPAGEKKNGMTINFYQYSLKDSSTYSNPSYMAYGYADAEKLGSVSGQTKLSIDYSIPCNGASDTCACSDDDATEYSASQVVPVKRGVKLCSDNTTLSSKTEKRENDDCDQGAAYWSSDLFGFYTTPTNVTVEMTGYFLPPKTGTYTFGFATVDDSAILSVGGNVAFECCKQEQPPITSTDFTINGIKPWNADAPTDIKGSTYMYAGYYYPIKIVYSNAVSWGTLPVSVVLPDGTEVNDDFEGYVFSFDDNATQAHCSVPNPAEHARTCVSSATSSWSSSEVCTECTETESTSYVTPYVTSSSWSSSEVCTECTETESTSTSTPYVTSSSSSSSEVCTECTETESTSYVTPYVSSSTAAANYTSSFSSSSEVCTECTETESTSTSTPYVTSSSWSSSEVCTECTETESTSYVTPYVSSSTAAANYTSSFSSSSEVCTECTETESTSTSTPYVTSSSSSSSEVCTECTETESTSYVTPYVSSSTAAANYTSSFSSSSEVCTECTETESTSTSTPYVTSSSWSSSEVCTECTETESTSYVTPYVSSSTAAANYTSSFSSSSEVCTECTETESTSTSTPYATSSTGTATSFTASTSNTMTSLVQTDTTVSFSLSSTVSEHTNAPTSSVESNASTFISSNKGSVKSYVTSSIHSITPMYPSNQTVTSSSVVSTPITSESSESSASVTILPSTITSEFKPSTMKTKVVSISSSPTNLITSYDTTSKDSTVGSSTSSVSLISSISLPSSYSASSEQIFHSSIVSSNGQALTSFSSTKVSSSESSESHRTSPTTSSESGIKSSGVEIESTSTSSFSFHETSTASTSVQISSQFVTPSSPISTVAPRSTGLNSQTESTNSSKETMSSENSASVMPSSSATSPKTGKVTSDETSSGFSRDRTTVYRMTSETPSTNEQTTLITVSSCESNSCSNTVSSAVVSTATTTINGITTEYTTWCPLSATELTTVSKLESEEKTTLITVTSCESGVCSETASPAIVSTATATVNDVVTVYSTWSPQATNKLAVSSDIENSASKASFVSEAAETKSISRNNNFVPTSGTTSIETHTTTTSNASENSDNVSASEAVSSKSVTNPVLISVSQQPRGTPASSMIGSSTASLEMSSYLGIANHLLTNSGISIFIASLLLAIV
# Assays:
# Experiment in all cases: glycan array binding signal (z-score within array); higher = stronger binding
# Details in all cases: glycan notation: IUPAC condensed, linker removed
# Man(b1-4)GlcNAc = target: Man(b1-4)GlcNAc
# Outline: (§1)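 The binding signal is a Z-score computed within each array and averaged over linkers. Arrays of the same protein sequence at different concentrations or buffers were also averaged together. Data originate from 3228 arrays in the Consortium for Functional Glycomics database, kept only where the protein sequence was available.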
# Neu5Ac(a2-3)Gal = target: Neu5Ac(a2-3)Gal
# Outline: as §1
# [1] = target: Neu5Ac(a2-3)Gal(b1-3)GalNAc
# Outline: as §1
# [2] = target: Neu5Ac(a2-3)Gal(b1-3)GalNAc(b1-3)Gal(a1-4)Gal(b1-4)Glc
# Outline: as §1
# [3] = target: Neu5Ac(a2-3)Gal(b1-3)GalNAc(b1-4)[Neu5Ac(a2-3)]Gal(b1-4)Glc
# Outline: as §1
# [4] = target: Neu5Ac(a2-3)Gal(b1-3)GalNAc6S
# Outline: as §1
# [5] = target: Neu5Ac(a2-3)Gal(b1-3)GlcNAc
# Outline: as §1
# [6] = target: Neu5Ac(a2-3)Gal(b1-3)GlcNAc(b1-2)Man(a1-3)[Neu5Ac(a2-3)Gal(b1-3)GlcNAc(b1-2)Man(a1-6)]Man(b1-4)GlcNAc(b1-4)GlcNAc
# Outline: as §1
# [7] = target: Neu5Ac(a2-3)Gal(b1-3)GlcNAc(b1-3)Gal(b1-3)GlcNAc
# Outline: as §1
# [8] = target: Neu5Ac(a2-3)Gal(b1-3)GlcNAc(b1-3)Gal(b1-4)GlcNAc
# Outline: as §1
# [9] = target: Neu5Ac(a2-3)Gal(b1-3)GlcNAc(b1-3)GalNAc
# Outline: as §1
# [10] = target: Neu5Ac(a2-3)Gal(b1-3)GlcNAc6S
# Outline: as §1
# [11] = target: Neu5Ac(a2-3)Gal(b1-3)[Fuc(a1-4)]GlcNAc
# Outline: as §1
# [12] = target: Neu5Ac(a2-3)Gal(b1-3)[Fuc(a1-4)]GlcNAc(b1-3)Gal(b1-3)[Fuc(a1-4)]GlcNAc
# Outline: as §1
# [13] = target: Neu5Ac(a2-3)Gal(b1-3)[Fuc(a1-4)]GlcNAc(b1-3)Gal(b1-4)[Fuc(a1-3)]GlcNAc
# Outline: as §1
# [14] = target: Neu5Ac(a2-3)Gal(b1-3)[Neu5Ac(a2-3)Gal(b1-4)]GlcNAc
# Outline: as §1
# [15] = target: Neu5Ac(a2-3)Gal(b1-3)[Neu5Ac(a2-6)]GalNAc
# Outline: as §1
# Neu5Ac(a2-3)Gal(b1-4)Glc = target: Neu5Ac(a2-3)Gal(b1-4)Glc
# Outline: as §1
# [16] = target: Neu5Ac(a2-3)Gal(b1-4)GlcNAc
# Outline: as §1
# [17] = target: Neu5Ac(a2-3)Gal(b1-4)GlcNAc(b1-2)Man(a1-3)[GlcNAc(b1-2)Man(b1-4)GlcNAc(b1-2)Man(a1-6)]Man(b1-4)GlcNAc(b1-4)GlcNAc
# Outline: as §1
# [18] = target: Neu5Ac(a2-3)Gal(b1-4)GlcNAc(b1-2)Man(a1-3)[Neu5Ac(a2-6)Gal(b1-4)GlcNAc(b1-2)Man(a1-6)]Man(b1-4)GlcNAc(b1-4)GlcNAc
# Outline: as §1
# [19] = target: Neu5Ac(a2-3)Gal(b1-4)GlcNAc(b1-3)Gal(b1-3)GlcNAc
# Outline: as §1
# [20] = target: Neu5Ac(a2-3)Gal(b1-4)GlcNAc(b1-3)Gal(b1-4)GlcNAc
# Outline: as §1
binder,measurement,setting,value
B1,glycan array binding signal (z-score),Man(b1-4)GlcNAc,-0.435
same,glycan array binding signal (z-score),Neu5Ac(a2-3)Gal,-0.75
same,glycan array binding signal (z-score),[1],0.113
same,glycan array binding signal (z-score),[2],-0.274
same,glycan array binding signal (z-score),[3],0.386
same,glycan array binding signal (z-score),[4],-0.697
same,glycan array binding signal (z-score),[5],0.095
same,glycan array binding signal (z-score),[6],-0.606
same,glycan array binding signal (z-score),[7],-0.694
same,glycan array binding signal (z-score),[8],-0.081
same,glycan array binding signal (z-score),[9],-0.787
same,glycan array binding signal (z-score),[10],-0.311
same,glycan array binding signal (z-score),[11],-0.582
same,glycan array binding signal (z-score),[12],0.232
same,glycan array binding signal (z-score),[13],-0.719
same,glycan array binding signal (z-score),[14],-0.644
same,glycan array binding signal (z-score),[15],-0.202
same,glycan array binding signal (z-score),Neu5Ac(a2-3)Gal(b1-4)Glc,0.003
same,glycan array binding signal (z-score),[16],-0.187
same,glycan array binding signal (z-score),[17],0.121
same,glycan array binding signal (z-score),[18],-0.301
same,glycan array binding signal (z-score),[19],-0.613
same,glycan array binding signal (z-score),[20],-0.112

# Random excerpt: two entries already listed.
binder,measurement,setting,value
B1,glycan array binding signal (z-score),[14],-0.644
same,glycan array binding signal (z-score),[15],-0.202
